Data as given in PubChem BioAssay AID504764 (Drosophila RNAi Screening Center, 2011).

Test: 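Knock-downs that raise or lower a Notch target reporter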 (primary screen)
Cells: Drosophila Kc167 cells
Reagent: long dsRNA against Drosophila genes
Duration: about 5 days (4 days dsRNA, then 24 h after transfection)
Challenge: transfection of constitutively active membrane-tethered Notch lacking the extracellular domain, read 24 h later
Measurement: 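Light from a Notch-responsive E(spl)m3 luciferase reporter under active Notch, with control-promoter and no-Notch reporter wells to normalise; raw counts from paired wells a and b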
Direction: induced reporter light, run 1, well a and induced reporter light, run 1, well b: higher = more light from the Notch target reporter with active Notch; control promoter light, run 1, well a and control promoter light, run 1, well b: higher = more light from the viral control promoter (cell number, transfection, viability); uninduced reporter light, run 1, well a: higher = more light from the Notch target reporter without active Notch
Call rule: 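Wells with low control signal or poorly matching duplicates excluded; duplicates averaged; per source plate, z beyond ±2 for induced/control log2 ratio or beyond ±1.8 for induced/uninduced marks a hit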
Meaning of the calls: active = modifier hit (raised or lowered Notch signal); inactive = not a hit
In all, the deposit lists about 22,000 reagents; below is a random part of those that have a named target and a result. In the full data, 403 (1.9%) were called active. 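Unnormalised raw counts per well; ratio z-scores behind the hit calls and whether each hit raises or lowers signal are not deposited.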 A plus sign joins genes that one reagent is predicted to hit. No sequences are given here. The record does not give: the amount of reagent.

Spn42De [DRSC05011] — induced reporter light, run 1, well a: 2.11e5; induced reporter light, run 1, well b: 1.93e5; control promoter light, run 1, well a: 2.14e5; control promoter light, run 1, well b: 2.02e5; uninduced reporter light, run 1, well a: 19135; Outcome: inactive
CG11123 [DRSC06040] — induced reporter light, run 1, well a: 1.91e5; induced reporter light, run 1, well b: 1.81e5; control promoter light, run 1, well a: 2.27e5; control promoter light, run 1, well b: 1.97e5; uninduced reporter light, run 1, well a: 16065; Outcome: inactive
CG42496 + Ppcdc [DRSC03886] — induced reporter light, run 1, well a: 76075; induced reporter light, run 1, well b: 80250; control promoter light, run 1, well a: 72840; control promoter light, run 1, well b: 81950; uninduced reporter light, run 1, well a: 7770; Outcome: inactive
CG18371 [DRSC06733] — induced reporter light, run 1, well a: 85870; induced reporter light, run 1, well b: 94950; control promoter light, run 1, well a: 99595; control promoter light, run 1, well b: 1.07e5; uninduced reporter light, run 1, well a: 7530; Outcome: inactive
danr [DRSC14651] — induced reporter light, run 1, well a: 1.64e5; induced reporter light, run 1, well b: 1.97e5; control promoter light, run 1, well a: 2.27e5; control promoter light, run 1, well b: 2.22e5; uninduced reporter light, run 1, well a: 15795; Outcome: inactive
sktl [DRSC04715] — induced reporter light, run 1, well a: 1.60e5; induced reporter light, run 1, well b: 1.58e5; control promoter light, run 1, well a: 1.24e5; control promoter light, run 1, well b: 1.46e5; uninduced reporter light, run 1, well a: 13700; Outcome: inactive
CG33232 (retired record) [DRSC08187] — induced reporter light, run 1, well a: 88825; induced reporter light, run 1, well b: 84405; control promoter light, run 1, well a: 2.08e5; control promoter light, run 1, well b: 2.26e5; uninduced reporter light, run 1, well a: 8335; Outcome: inactive
CG33232 (retired record) [DRSC08495] — induced reporter light, run 1, well a: 93780; induced reporter light, run 1, well b: 1.06e5; control promoter light, run 1, well a: 1.12e5; control promoter light, run 1, well b: 1.15e5; uninduced reporter light, run 1, well a: 7040; Outcome: inactive
CG14961 [DRSC08420] — induced reporter light, run 1, well a: 1.25e5; induced reporter light, run 1, well b: 1.19e5; control promoter light, run 1, well a: 1.49e5; control promoter light, run 1, well b: 2.10e5; uninduced reporter light, run 1, well a: 12535; Outcome: inactive
Rbp [DRSC15724] — induced reporter light, run 1, well a: 61445; induced reporter light, run 1, well b: 65705; control promoter light, run 1, well a: 71700; control promoter light, run 1, well b: 62485; uninduced reporter light, run 1, well a: 7390; Outcome: inactive
Rbp [DRSC15726] — induced reporter light, run 1, well a: 2.11e5; induced reporter light, run 1, well b: 2.04e5; control promoter light, run 1, well a: 1.21e5; control promoter light, run 1, well b: 1.24e5; uninduced reporter light, run 1, well a: 15505; Outcome: inactive
CG9616 [DRSC16518] — induced reporter light, run 1, well a: 3.11e5; induced reporter light, run 1, well b: 3.54e5; control promoter light, run 1, well a: 3.09e5; control promoter light, run 1, well b: 3.46e5; uninduced reporter light, run 1, well a: 22040; Outcome: inactive

Reformatted: entries from further up
{"Gene": "Rbp", "amplicon": "DRSC15724", "induced reporter light, run 1, well a": 61445, "induced reporter light, run 1, well b": 65705, "control promoter light, run 1, well a": 71700, "control promoter light, run 1, well b": 62485, "uninduced reporter light, run 1, well a": 7390, "Outcome": "inactive"}
{"Gene": "Rbp", "amplicon": "DRSC15726", "induced reporter light, run 1, well a": 2.11e5, "induced reporter light, run 1, well b": 2.04e5, "control promoter light, run 1, well a": 1.21e5, "control promoter light, run 1, well b": 1.24e5, "uninduced reporter light, run 1, well a": 15505, "Outcome": "inactive"}
